Assay results: article PMC9560165
Results are given in words; binding and its absence hold for the method and conditions named. Binding seen in cells or lysates may run through a third protein. Here binding means that the protein was enriched with, or labelled near, the bait; the list need not be complete. A no says only that the protein was not detected with the bait.

Chains of the proteins cited; added tags and fusions are not shown. Residues count along the entry.
UniProt O00410: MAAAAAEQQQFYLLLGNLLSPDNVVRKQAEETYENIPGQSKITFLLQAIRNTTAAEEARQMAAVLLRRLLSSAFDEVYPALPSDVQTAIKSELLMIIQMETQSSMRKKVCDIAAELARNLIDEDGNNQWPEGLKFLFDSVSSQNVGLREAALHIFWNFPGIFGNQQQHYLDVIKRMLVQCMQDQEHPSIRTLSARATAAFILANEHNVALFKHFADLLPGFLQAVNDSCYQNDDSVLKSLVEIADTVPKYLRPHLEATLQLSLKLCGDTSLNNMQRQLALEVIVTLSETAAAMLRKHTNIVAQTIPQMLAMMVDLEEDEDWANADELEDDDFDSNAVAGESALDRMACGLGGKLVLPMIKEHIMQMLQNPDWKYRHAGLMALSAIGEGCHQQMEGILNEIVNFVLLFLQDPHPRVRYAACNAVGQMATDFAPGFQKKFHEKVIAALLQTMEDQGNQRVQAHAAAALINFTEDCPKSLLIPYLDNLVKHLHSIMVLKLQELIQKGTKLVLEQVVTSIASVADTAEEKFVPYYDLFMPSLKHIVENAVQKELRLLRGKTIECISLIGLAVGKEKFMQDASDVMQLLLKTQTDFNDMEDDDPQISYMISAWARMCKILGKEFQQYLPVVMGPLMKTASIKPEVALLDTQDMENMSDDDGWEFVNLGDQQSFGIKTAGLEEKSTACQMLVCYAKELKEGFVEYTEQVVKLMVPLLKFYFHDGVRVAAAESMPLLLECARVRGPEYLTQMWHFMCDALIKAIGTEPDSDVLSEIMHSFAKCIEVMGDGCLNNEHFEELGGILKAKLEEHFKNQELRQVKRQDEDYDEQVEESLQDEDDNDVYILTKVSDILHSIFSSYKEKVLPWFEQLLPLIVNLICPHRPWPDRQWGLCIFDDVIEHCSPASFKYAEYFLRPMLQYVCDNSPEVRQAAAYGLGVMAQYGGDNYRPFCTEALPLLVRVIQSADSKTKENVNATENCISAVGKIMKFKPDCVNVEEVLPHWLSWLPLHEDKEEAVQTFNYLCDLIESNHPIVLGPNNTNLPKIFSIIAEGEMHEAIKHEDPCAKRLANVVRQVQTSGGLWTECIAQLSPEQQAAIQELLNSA
UniProt O14929: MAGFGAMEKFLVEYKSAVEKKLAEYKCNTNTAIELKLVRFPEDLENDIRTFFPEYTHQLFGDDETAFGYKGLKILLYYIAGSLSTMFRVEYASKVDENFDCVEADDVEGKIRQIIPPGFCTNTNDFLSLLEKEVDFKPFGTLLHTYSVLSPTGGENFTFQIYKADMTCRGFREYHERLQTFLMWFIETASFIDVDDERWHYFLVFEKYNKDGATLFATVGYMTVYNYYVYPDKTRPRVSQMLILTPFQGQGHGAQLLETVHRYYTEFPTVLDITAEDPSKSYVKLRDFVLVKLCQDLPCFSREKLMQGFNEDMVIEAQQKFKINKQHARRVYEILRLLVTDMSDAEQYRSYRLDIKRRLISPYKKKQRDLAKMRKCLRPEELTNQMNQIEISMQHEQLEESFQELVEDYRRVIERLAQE
UniProt P11142: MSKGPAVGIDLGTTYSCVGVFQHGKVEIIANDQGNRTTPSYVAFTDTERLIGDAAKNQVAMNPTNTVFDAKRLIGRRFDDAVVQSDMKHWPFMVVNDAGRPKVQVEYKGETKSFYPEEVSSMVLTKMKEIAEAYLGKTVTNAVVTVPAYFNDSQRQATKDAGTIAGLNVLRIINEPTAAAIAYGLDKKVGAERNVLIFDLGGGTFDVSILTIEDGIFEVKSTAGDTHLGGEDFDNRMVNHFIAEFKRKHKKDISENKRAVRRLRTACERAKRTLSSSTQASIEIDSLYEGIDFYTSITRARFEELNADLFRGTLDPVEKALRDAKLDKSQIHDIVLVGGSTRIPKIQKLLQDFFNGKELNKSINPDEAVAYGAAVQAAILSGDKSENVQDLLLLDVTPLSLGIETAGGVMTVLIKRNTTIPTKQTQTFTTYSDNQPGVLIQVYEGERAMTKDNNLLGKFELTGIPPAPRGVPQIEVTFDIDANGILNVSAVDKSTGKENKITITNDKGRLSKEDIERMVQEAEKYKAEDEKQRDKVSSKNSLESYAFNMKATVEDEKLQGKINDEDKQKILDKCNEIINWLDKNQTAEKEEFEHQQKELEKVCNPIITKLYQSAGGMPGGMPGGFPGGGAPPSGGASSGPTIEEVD
UniProt Q9NVP2: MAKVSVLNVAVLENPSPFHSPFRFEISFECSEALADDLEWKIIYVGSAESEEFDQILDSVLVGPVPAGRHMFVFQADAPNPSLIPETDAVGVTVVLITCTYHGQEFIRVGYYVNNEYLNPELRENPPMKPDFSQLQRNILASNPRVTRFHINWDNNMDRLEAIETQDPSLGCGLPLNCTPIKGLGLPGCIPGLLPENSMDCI
UniProt P11021, residues 19-654: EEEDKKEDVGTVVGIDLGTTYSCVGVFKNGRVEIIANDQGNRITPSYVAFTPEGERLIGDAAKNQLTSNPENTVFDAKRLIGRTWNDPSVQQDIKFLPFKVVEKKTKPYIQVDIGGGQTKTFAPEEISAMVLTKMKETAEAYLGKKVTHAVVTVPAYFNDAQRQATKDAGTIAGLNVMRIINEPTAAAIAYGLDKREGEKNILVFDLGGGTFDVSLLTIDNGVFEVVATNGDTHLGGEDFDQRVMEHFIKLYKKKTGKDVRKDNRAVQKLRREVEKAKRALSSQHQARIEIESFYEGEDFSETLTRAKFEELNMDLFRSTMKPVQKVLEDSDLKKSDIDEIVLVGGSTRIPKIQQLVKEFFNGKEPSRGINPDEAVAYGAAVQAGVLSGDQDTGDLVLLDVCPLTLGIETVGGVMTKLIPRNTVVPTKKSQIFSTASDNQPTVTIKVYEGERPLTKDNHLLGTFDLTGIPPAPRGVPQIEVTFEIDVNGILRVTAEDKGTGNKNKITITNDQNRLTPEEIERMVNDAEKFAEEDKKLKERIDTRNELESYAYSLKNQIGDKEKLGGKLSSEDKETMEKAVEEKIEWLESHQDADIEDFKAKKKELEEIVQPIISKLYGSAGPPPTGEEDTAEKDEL
UniProt P0DMV8: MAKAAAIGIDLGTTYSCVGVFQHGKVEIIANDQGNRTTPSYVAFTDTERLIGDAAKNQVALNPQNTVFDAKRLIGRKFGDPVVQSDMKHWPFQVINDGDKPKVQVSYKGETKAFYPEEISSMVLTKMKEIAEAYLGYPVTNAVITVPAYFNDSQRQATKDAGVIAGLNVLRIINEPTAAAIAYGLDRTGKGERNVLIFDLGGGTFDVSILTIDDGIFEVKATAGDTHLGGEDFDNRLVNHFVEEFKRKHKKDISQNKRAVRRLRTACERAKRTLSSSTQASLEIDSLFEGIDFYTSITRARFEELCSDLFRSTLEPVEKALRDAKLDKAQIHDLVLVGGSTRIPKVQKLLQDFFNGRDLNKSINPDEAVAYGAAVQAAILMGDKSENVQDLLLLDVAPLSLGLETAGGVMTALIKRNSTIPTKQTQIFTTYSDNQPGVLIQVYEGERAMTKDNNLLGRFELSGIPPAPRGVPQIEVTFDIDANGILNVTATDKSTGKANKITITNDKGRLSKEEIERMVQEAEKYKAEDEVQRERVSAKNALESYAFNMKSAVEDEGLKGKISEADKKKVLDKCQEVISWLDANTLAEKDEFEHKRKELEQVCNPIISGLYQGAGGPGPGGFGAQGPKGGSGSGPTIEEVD
UniProt Q07021, residues 74-282: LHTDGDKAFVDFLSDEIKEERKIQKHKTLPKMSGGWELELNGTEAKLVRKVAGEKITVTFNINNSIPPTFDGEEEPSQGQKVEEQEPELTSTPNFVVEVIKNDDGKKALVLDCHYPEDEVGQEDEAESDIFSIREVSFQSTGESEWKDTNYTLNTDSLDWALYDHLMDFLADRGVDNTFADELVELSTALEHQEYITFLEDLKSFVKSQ

Biological target: EGFP-TEV-sNASP (human) (UniProt P49321)
Experiment: affinity purification with mass spectrometry; GFP-Trap pull-down of eGFP-sNASP from HEK293-F, TEV release, 1D native gel; bands cut out, in-gel digestion, LC-MS/MS

Row | binding | Substance
1 | no binding | importin-5 (endogenous) (from UniProt O00410 1-1097)
2 | binds | HAT1 (from UniProt O14929 1-419)
3 | binds | HSPA8 (from UniProt P11142 1-646)
4 | binds | ASF1B (from UniProt Q9NVP2 1-202)
5 | binds | HSPA5 (from UniProt P11021 19-654)
6 | binds | HSPA1A (from UniProt P0DMV8 1-641)
7 | no binding | C1QBP (from UniProt Q07021 74-282)
